These are yes or no findings as the source states them, for the method shown. In cells and extracts the contact can be indirect. Some results given as binding are weak or reduced against the parent protein; the word gives no strength.
B1: CCCTC binding factor (CTCF) (protein, UniProt P49711 1-727)
chain: MEGDAVEAIVEESETFIKGKERKTYQRRREGGQEEDACHLPQNQTDGGEVVQDVNSSVQMVMMEQLDPTLLQMKTEVMEGTVAPEAEAAVDDTQIITLQVVNMEEQPINIGELQLVQVPVPVTVPVATTSVEELQGAYENEVSKEGLAESEPMICHTLPLPEGFQVVKVGANGEVETLEQGELPPQEDPSWQKDPDYQPPAKKTKKTKKSKLRYTEEGKDVDVSVYDFEEEQQEGLLSEVNAEKVVGNMKPPKPTKIKKKGVKKTFQCELCSYTCPRRSNLDRHMKSHTDERPHKCHLCGRAFRTVTLLRNHLNTHTGTRPHKCPDCDMAFVTSGELVRHRRYKHTHEKPFKCSMCDYASVEVSKLKRHIRSHTGERPFQCSLCSYASRDTYKLKRHMRTHSGEKPYECYICHARFTQSGTMKMHILQKHTENVAKFHCPHCDTVIARKSDLGVHLRKQHSYIEQGKKCRYCDAVFHERYALIQHQKSHKNEKRFKCDQCDYACRQERHMIMHKRTHTGEKPYACSHCDKTFRQKQLLDMHFKRYHDPNFVPAAFVCSKCGKTFTRRNTMARHADNCAGPDGVEGENGGETKKSKRGRKRKMRSKKEDSSDSENAEPDLDDNEDEEEPAVEIEPEPEPQPVTPAPPPAKKRRGRPPGRTNQPKQNQPTAIIQVEDQNTGAIENIIVEVKKEPDAEPAEGEEEEAQPAATDAPNGDLTPEMILSMMDR

Chains of the proteins cited; added tags and fusions are not shown.
UniProt Q92841: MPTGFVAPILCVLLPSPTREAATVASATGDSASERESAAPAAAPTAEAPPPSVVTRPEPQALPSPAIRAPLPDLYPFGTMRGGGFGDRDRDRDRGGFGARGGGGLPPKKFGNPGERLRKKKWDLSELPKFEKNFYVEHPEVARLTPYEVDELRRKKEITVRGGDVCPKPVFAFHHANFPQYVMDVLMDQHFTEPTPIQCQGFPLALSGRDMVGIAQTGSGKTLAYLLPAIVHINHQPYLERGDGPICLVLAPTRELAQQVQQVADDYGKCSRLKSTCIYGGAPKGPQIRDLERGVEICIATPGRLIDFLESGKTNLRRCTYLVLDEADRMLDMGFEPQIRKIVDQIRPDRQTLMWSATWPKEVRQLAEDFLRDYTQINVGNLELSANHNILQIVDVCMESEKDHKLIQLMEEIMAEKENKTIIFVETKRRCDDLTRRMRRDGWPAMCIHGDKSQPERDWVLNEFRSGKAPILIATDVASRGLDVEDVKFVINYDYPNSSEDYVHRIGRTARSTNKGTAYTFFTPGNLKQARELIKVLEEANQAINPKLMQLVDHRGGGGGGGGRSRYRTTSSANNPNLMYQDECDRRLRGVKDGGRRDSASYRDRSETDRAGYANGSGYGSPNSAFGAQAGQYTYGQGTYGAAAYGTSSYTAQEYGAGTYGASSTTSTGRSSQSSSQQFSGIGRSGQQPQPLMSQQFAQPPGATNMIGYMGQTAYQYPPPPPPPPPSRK
UniProt P17844: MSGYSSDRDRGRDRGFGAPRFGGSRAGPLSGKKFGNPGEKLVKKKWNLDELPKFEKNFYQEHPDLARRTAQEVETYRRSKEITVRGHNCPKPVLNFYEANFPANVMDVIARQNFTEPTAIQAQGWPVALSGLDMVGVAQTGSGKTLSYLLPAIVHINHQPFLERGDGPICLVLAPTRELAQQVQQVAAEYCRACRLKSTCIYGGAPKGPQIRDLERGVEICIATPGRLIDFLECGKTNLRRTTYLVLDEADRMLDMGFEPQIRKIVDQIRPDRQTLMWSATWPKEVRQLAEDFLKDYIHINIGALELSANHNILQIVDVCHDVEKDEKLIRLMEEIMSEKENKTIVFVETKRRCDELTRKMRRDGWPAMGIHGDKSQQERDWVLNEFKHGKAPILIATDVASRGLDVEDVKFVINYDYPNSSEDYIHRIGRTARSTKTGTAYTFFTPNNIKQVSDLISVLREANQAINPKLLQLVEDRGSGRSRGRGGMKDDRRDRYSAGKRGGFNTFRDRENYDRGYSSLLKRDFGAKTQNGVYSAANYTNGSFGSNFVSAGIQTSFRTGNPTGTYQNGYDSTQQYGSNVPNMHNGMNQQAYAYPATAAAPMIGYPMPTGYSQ

Target: DEAD-Box Helicase 17 (DDX17) (UniProt Q92841)
Assay: co-IP; 293T cells lysed in IP-lysis buffer (P0013; Beyotime) with protease inhibitor cocktail; standard protocol; bait and antibodies not told in the main text

| Molecule | binding |
| --- | --- |
| DEAD-Box Helicase 5 (DDX5) (from UniProt P17844 1-614) | binds |
| B1 | binds |
